These are yes or no findings as the source states them, for the method shown. Some entries that bind do so weakly or less than the wild type. One block for each binder: values may come before it.
Experiments:
[1] = target: T1, P612A peptide (HER2 603-622 with P612A) (human); experiment: peptide ELISA, OD 655 nm
T1 sequence (peptide): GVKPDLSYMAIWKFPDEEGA

[2] = target: T2, D607A peptide (HER2 603-622 with D607A) (human); experiment: peptide ELISA, OD 655 nm
T2 sequence (peptide): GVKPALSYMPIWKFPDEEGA

[3] = target: T3, Y610A peptide (HER2 603-622 with Y610A) (human); experiment: peptide ELISA, OD 655 nm
T3 sequence (peptide): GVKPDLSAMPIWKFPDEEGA

[4] = target: T4, HER2_604-622C peptide (NH2-…-COOH) (human); experiment: peptide ELISA, OD 655 nm
T4 sequence (peptide): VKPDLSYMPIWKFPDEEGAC

[5] = target: T5, P617A peptide (HER2 603-622 with P617A) (human); experiment: peptide ELISA, OD 655 nm
T5 sequence (peptide): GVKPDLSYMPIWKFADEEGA

[6] = target: T6, I613A peptide (HER2 603-622 with I613A) (human); experiment: peptide ELISA, OD 655 nm
T6 sequence (peptide): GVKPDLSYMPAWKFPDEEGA

[7] = target: T7, D618A peptide (HER2 603-622 with D618A) (human); experiment: peptide ELISA, OD 655 nm
T7 sequence (peptide): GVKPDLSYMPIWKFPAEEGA

[8] = target: T8, HER2 peptide p603-622 (amino acids 603 to 622 of human HER2) (human); experiment: peptide ELISA, OD 655 nm
T8 sequence (peptide): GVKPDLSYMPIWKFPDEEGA

[9] = target: T9, P606A peptide (HER2 603-622 with P606A) (human); experiment: peptide ELISA, OD 655 nm
T9 sequence (peptide): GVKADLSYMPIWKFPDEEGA

[10] = target: T10, E620A peptide (HER2 603-622 with E620A) (human); experiment: peptide ELISA, OD 655 nm
T10 sequence (peptide): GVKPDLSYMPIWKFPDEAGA

[11] = target: T11, K615A peptide (HER2 603-622 with K615A) (human); experiment: peptide ELISA, OD 655 nm
T11 sequence (peptide): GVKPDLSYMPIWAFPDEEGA

[12] = target: T12, G621A peptide (HER2 603-622 with G621A) (human); experiment: peptide ELISA, OD 655 nm
T12 sequence (peptide): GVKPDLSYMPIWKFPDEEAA

[13] = target: T13, E619A peptide (HER2 603-622 with E619A) (human); experiment: peptide ELISA, OD 655 nm
T13 sequence (peptide): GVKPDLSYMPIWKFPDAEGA

[14] = target: T14, K605A peptide (HER2 603-622 with K605A) (human); experiment: peptide ELISA, OD 655 nm
T14 sequence (peptide): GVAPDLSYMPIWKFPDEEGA

[15] = target: T15, L608A peptide (HER2 603-622 with L608A) (human); experiment: peptide ELISA, OD 655 nm
T15 sequence (peptide): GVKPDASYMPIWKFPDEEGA

[16] = target: T16, S609A peptide (HER2 603-622 with S609A) (human); experiment: peptide ELISA, OD 655 nm
T16 sequence (peptide): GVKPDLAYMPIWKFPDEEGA

[17] = target: T17, G603A peptide (HER2 603-622 with G603A) (human); experiment: peptide ELISA, OD 655 nm
T17 sequence (peptide): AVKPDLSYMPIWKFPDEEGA

[18] = target: T18, M611A peptide (HER2 603-622 with M611A) (human); experiment: peptide ELISA, OD 655 nm
T18 sequence (peptide): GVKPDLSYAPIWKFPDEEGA

[19] = target: T19, V604A peptide (HER2 603-622 with V604A) (human); experiment: peptide ELISA, OD 655 nm
T19 sequence (peptide): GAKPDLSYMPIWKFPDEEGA

[20] = target: T4, HER2_604-622C peptide (NH2-…-COOH) (human); experiment: ELISA on coated HER2p604-622C, hybridoma supernatant
[21] = target: T20, HER2 peptide p613-622 (human); experiment: peptide ELISA, OD 655 nm
T20 sequence (peptide): IWKFPDEEGA

[22] = target: T21, HER2 peptide p613-621 (human); experiment: peptide ELISA, OD 655 nm
T21 sequence (peptide): IWKFPDEEG

[23] = target: T22, F616A peptide (HER2 603-622 with F616A) (human); experiment: ELISA on alanine-substituted peptides
T22 sequence (peptide): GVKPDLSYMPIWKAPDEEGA

[24] = target: T11, K615A peptide (HER2 603-622 with K615A) (human); experiment: ELISA on alanine-substituted peptides

binding [1]: binds | binding [2]: binds | binding [3]: binds | binding [4]: binds | binding [5]: binds | binding [6]: binds | binding [7]: binds | binding [8]: binds | binding [9]: binds | binding [10]: binds | binding [11]: binds | binding [12]: binds | binding [13]: binds | binding [14]: binds | binding [15]: binds | binding [16]: binds | binding [17]: binds | binding [18]: binds | binding [19]: binds | binding [20]: binds
B1: H2Mab-286 antibody (antibody, mouse IgG1, kappa, V domains shown)
VH: DVQLQESGPGLVKPSQSLSLTCTVTGYSITSDYGWNWIRQFPGNKLEWMGYIRYSGITSYNPSLKSRISITRDTSKNQFFLQLNSVTTEDTATYYCTREVLSWGQGTTLTVSS
VL: DVVMTQTPLSLPVSLGDQASISCRSSQSLVHSNGNTYLHWFLQKPGQSPKLLIYKVSNRFSGVPARFSGSGSGTDFTLKISRVEAEDLGVYFCSQSTHVPPTFGGGTKLEIKR

binding [21]: binds | binding [22]: binds | binding [23]: binds | binding [24]: binds
B2: H2Mab-214 antibody (antibody, V domains shown)
VH: QVTLKESGPGILQPSQTLSLTCSFSGFSLSTSGMGVSWIRQPSGKGLEWLAHIFWDDDKRYNPSLKSRLTISKDTSRNKVFLKITSVDTADTATYYCARRVVATDWYFDVWGAGTTVTVSS
VL: DIVLTQSPASLAVSLGQRATISCRASESVEYYGTTLMQWYQQKPGQPPKLLIYAASKVESGVPARFSGSGSGTDFSLNIHPVEEDDVAMYFCQQSRKVPLTFGAGTKLELKR
